Source: US20220220215A1
Positions count from the first letter of the chain named. Names may count otherwise. These are yes or no findings as the source states them, for the method shown. Some binding calls cover weakened binding; strength is not graded here. Tags and fused reporters may be left off the sequences shown.

The chains behind the UniProt entries cited, without tags or fusion partners. Where a name states a change or a piece, a line headed by the entry shows the natural chain unless it says otherwise.
UniProt Q07011: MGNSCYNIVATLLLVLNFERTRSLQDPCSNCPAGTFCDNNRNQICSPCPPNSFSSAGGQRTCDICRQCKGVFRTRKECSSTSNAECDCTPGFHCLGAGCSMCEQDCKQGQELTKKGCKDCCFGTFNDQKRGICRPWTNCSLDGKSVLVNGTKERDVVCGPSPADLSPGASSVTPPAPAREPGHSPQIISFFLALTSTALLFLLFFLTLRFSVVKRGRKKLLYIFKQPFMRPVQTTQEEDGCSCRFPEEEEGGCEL

B1: 003BB172-E01-2 (VHH, not shown: small tags and cut ends)
VHH: EVQLVESGGGLVQPGGSLRLSCAASGFTFSNYGMHWVRQAPGKRLEWVAVISNDGNTKTYADSVKGRFTISRDNSKNTLYLQMTSLRTEDTAVYYCAQDETTTVTASYYFDYWGQGTLVTVSS
B2: 003BB172-E01-3 (VHH, not shown: small tags and cut ends)
VHH: B1 VHH with T78M, T84N
B3: 003BB172-E01-10 (VHH, not shown: small tags and cut ends)
VHH: B1 VHH with G16R, R44G, T84N
B4: 003BB172-E01-12 (VHH, not shown: small tags and cut ends)
VHH: B1 VHH with G16R, R44G, T84N, T88A
B5: 003BB172-E01-5 (VHH, not shown: small tags and cut ends)
VH: B1 VHH with T84N
B6: 003BB172-E01-4 (VHH, not shown: small tags and cut ends)
VHH: B1 VHH with R44G
B7: 003BB172-E01-11 (VHH, not shown: small tags and cut ends)
VHH: B1 VHH with L11V, G16R, R44G, T84N
B8: 003BB172-E01-7 (VHH, not shown: small tags and cut ends)
VHH: B1 VHH with R44G, T84N
B9: 003BB172-E01-14 (VHH, not shown: small tags and cut ends)
VH: B1 VHH with L11V, G16R, R44G, T84N, T88A
B10: 003BB172-E01-8 (VHH, not shown: small tags and cut ends)
VHH: B1 VHH with L11V, R44G, T84N
B11: 003BB172-E01-9 (VHH, not shown: small tags and cut ends)
VHH: B1 VHH with R44G, T84N, T88A
B12: 003BB172-E01-13 (VHH, not shown: small tags and cut ends)
VHH: B1 VHH with L11V, R44G, T84N, T88A
B13: 003BB172-E01-6 (VHH, not shown: small tags and cut ends)
VHH: B1 VHH with R44G, T78M, T84N
B14: TPP-943: PDA-6GS-172E1-13-6GS-HSA2-His (bispecific antibody)
chain: EVQLVESGGGLVQPGRSLRLSCAASGFTFDDYALHWVRQAPGKDLEWVSGISWNGGSYGYADSVKGRFTISRDNAKNSLYLQMNSLRAEDTALYYCVREKGPGLTGSTADYYGLDAWGQGTMVTVSSGGGGSGGGGSGGGGSGGGGSGGGGSGGGGSEVQLVESGGGVVQPGGSLRLSCAASGFTFSNYGMHWVRQAPGKGLEWVAVISNDGNTKTYADSVKGRFTISRDNSKNTLYLQMNSLRAEDTAVYYCAQDETTTVTASYYFDYWGQGTLVTVSSGGGGSGGGGSGGGGSGGGGSGGGGSGGGGSEVQLLESGGGLVKPGGSLRLSCAASGFTVSSYTMNWVRQAPGKGLEWVSSISSSGRYIYYADSVKGRFTISRDNAKNSLYLQMNSLRAEDTAVYYCARDPRMVGNPHEFDIWGQGTMVTVSSAAAHHHHHH
B15: TPP-951: PDA2-6GS-172E1-13-6GS-HSA3-His (bispecific antibody)
chain: EVQLVESGGGVVRPGGSLRLSCAASGFTFDDYAMSWVRQAPGKGLEWVSGITWNAGSTGYADSVKGRFTISRDNAKNSLYLQMNSLRAEDTALYYCVRDKYSYAWSYDDFDIWGQGTMVTVSSGGGGSGGGGSGGGGSGGGGSGGGGSGGGGSEVQLVESGGGVVQPGGSLRLSCAASGFTFSNYGMHWVRQAPGKGLEWVAVISNDGNTKTYADSVKGRFTISRDNSKNTLYLQMNSLRAEDTAVYYCAQDETTTVTASYYFDYWGQGTLVTVSSGGGGSGGGGSGGGGSGGGGSGGGGSGGGGSEVQLLESGGGLVKPGGSLRLSCAASGFTVSSYTMNWVRQAPGKGLEWVSSISSSGRYIYYADSVKGRFTISRDNAKNSLYLQMNSLRAEDTAVYYCARDPRMVGNPHEFDIWGQGTMVTVSSAAAHHHHHH
B16: TPP-958: PD138G7(G109D)-6GS-172E1-13-6GS-HSA3-His (bispecific antibody)
chain: B15 chain with A55G, G66D
B17: TPP-950: PDA2-6GS-172E1-13-6GS-HSA2-His (bispecific antibody)
chain: EVQLVESGGGVVRPGGSLRLSCAASGFTFDDYAMSWVRQAPGKGLEWVSGITWNAGSTGYADSVKGRFTISRDNAKNSLYLQMNSLRAEDTALYYCVRDKYSYAWSYDDFDIWGQGTMVTVSSGGGGSGGGGSGGGGSGGGGSGGGGSGGGGSEVQLVESGGGVVQPGGSLRLSCAASGFTFSNYGMHWVRQAPGKGLEWVAVISNDGNTKTYADSVKGRFTISRDNSKNTLYLQMNSLRAEDTAVYYCAQDETTTVTASYYFDYWGQGTLVTVSSGGGGSGGGGSGGGGSGGGGSGGGGSGGGGSEVQLVESGGGLVKPGGSLRLSCAASGFTFSNYNMNWVRQAPGKGLEWVSSISSAGTHIYYADSVKGRFTISRDNAKNSLYLQMNSLRAEDTAVYYCARDPHSTGWYKDFDYWGQGTLVTVSSAAAHHHHHH
B18: TPP-957: PD138G7(G109D)-6GS-172E1-13-6GS-HSA2-His (bispecific antibody)
chain: B17 chain with A55G, G66D
B19: TPP-942: PDA-6GS-172E1-13-6GS-HSA2-2-His (bispecific antibody)
chain: EVQLVESGGGLVQPGRSLRLSCAASGFTFDDYALHWVRQAPGKDLEWVSGISWNGGSYGYADSVKGRFTISRDNAKNSLYLQMNSLRAEDTALYYCVREKGPGLTGSTADYYGLDAWGQGTMVTVSSGGGGSGGGGSGGGGSGGGGSGGGGSGGGGSEVQLVESGGGVVQPGGSLRLSCAASGFTFSNYGMHWVRQAPGKGLEWVAVISNDGNTKTYADSVKGRFTISRDNSKNTLYLQMNSLRAEDTAVYYCAQDETTTVTASYYFDYWGQGTLVTVSSGGGGSGGGGSGGGGSGGGGSGGGGSGGGGSEVQLVESGGGLVKPGGSLRLSCAASGFTFSNYNMNWVRQAPGKGLEWVSSISSAGTHIYYADSVKGRFTISRDNAKNSLYLQMNSLRAEDTAVYYCARDPHSTGWYKDFDYWGQGTLVTVSSAAAHHHHHH

What follows are binders tested against human CD137 expressed on cells (human) (UniProt Q07011) (assay: FMAT (Mirrorball), His-tagged sample on CHO human CD137 cells).

| binding | Binder |
| --- | --- |
| binds | B1 |
| binds | B2 |
| binds | B3 |
| binds | B4 |
| binds | B5 |
| binds | B6 |
| binds | B7 |
| binds | B8 |
| binds | B9 |
| binds | B10 |
| binds | B11 |
| binds | B12 |
| binds | B13 |
| binds | B14 |
| binds | B15 |
| binds | B16 |
| binds | B17 |
| binds | B18 |
| binds | B19 |
